# Source: patent US20080261977A1, “Pyrimidine Derivatives as Cannabinoid Receptor Modulators” (priority 2004, published 2008)
# By UniProt entry, the sequences of proteins in these tests, tags left out.
# UniProt P34972, whole entry: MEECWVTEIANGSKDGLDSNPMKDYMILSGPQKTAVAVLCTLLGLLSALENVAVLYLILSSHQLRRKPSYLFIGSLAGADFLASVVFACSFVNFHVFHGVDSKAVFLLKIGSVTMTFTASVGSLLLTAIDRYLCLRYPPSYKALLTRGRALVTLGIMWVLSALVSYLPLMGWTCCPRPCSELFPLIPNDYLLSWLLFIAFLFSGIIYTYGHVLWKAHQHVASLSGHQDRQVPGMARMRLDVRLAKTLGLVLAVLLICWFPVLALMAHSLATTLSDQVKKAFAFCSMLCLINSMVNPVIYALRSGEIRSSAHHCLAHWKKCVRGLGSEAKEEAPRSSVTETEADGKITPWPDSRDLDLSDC
# Like-named read-outs stand apart in the source and are kept apart here. At least one compound was matched to its structure with a doubt left.
# Target: T1, human cannabinoid CB2 receptor (Homo sapiens, UniProt P34972)
# T1 construct: expressed in transfected cells; host or cells: Saccharomyces cerevisiae strain MMY23 (cassette integrated at the ura3 locus; chimeric Gpa1/Gαi3)
# Assay: Cannabinoid CB2 receptor agonist activity, yeast (Saccharomyces cerevisiae) cells expressing the receptor, FDGlu fluorescence
# Format: cell-based
# Protocol: The cannabinoid CB2 receptor agonist activity of the compounds of formula (I) was determined in accordance with the following experimental method.
# Yeast (Saccharomyces cerevisiae) cells expressing the human cannabinoid CB2 receptor were generated by integration of an expression cassette into the ura3 chromosomal locus of yeast strain MMY23. This cassette consisted of DNA sequence encoding the human CB2 receptor flanked by the yeast GPD promoter to the 5′ end of CB2 and a yeast transcriptional terminator sequence to the 3′ end of CB2. MMY23 expresses a yeast/mammalian chimeric G-protein alpha subunit in which the C-terminal 5 amino acids of Gpa1 are replaced with the C-terminal 5 amino acids of human Gαi3 (as described in Brown et al. (2000), Yeast 16:11-22). […]
# Agonists were prepared as 10 mM stocks in DMSO. […] After incubation at 30° C. for 24 hours, fluorescence resulting from degradation of FDGlu to fluorescein due to exoglucanase, an endogenous yeast enzyme produced during agonist-stimulated cell growth, was determined using a Spectrofluor microtitre plate reader (Tecan; excitation wavelength: 485 nm; emission wavelength: 535 nm). Fluorescence was plotted against compound concentration and iteratively curve fitted using a four parameter fit to generate a concentration effect value. Efficacy (Emax) was calculated from the equation […]
smiles,measurement,setting,value
"O=CO.OCC1CCN(Cc2cnc(Nc3cccc(Cl)c3)nc2C(F)(F)F)CC1 [Example 84, {1-[2-(3-Chloro-phenylamino)-4-trifluoromethyl-pyrimidin-5-ylmethyl]-piperidin-4-yl}-methanol, formate]",potency or efficacy at the CB2 receptor (in words),,no appreciable potency or efficacy
same,potency or efficacy at the CB2 receptor (in words),listed as {1-[2-(3-chloro-phenylamino)-4-trifluoromethyl-pyrimidin-5-ylmethyl]-piperidin-4,do not appear to have any potency or efficacy
